Binding data for 20 molecules are collected here from PMC5605756.

Amino acid sequences for entries named in this document (tags omitted). A change or cut given only in a name is not applied to a line headed by its entry.
UniProt Q00175: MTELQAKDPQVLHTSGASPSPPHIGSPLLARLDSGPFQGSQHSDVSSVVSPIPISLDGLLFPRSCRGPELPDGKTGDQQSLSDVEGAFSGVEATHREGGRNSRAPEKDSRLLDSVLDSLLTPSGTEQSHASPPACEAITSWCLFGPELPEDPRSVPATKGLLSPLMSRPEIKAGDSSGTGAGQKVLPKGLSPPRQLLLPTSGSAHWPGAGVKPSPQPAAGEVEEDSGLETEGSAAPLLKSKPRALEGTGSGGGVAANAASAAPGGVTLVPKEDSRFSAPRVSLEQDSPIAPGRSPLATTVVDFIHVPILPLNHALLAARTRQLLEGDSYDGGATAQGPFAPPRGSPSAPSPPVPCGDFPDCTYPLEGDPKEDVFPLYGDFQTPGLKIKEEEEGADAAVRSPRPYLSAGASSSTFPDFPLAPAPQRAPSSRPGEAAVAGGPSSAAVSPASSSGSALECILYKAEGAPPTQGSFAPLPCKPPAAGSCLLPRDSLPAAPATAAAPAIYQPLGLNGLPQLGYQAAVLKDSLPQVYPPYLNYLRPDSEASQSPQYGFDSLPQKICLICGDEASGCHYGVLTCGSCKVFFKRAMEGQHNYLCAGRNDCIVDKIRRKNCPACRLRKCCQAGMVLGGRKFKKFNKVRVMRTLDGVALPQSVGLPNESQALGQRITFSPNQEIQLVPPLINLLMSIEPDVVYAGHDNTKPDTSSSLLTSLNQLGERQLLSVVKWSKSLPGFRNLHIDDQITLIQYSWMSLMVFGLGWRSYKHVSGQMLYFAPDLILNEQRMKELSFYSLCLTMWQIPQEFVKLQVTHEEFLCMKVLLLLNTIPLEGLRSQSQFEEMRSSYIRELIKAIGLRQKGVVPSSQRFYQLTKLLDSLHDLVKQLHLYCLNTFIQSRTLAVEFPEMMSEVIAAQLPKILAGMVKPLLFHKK
UniProt P02088: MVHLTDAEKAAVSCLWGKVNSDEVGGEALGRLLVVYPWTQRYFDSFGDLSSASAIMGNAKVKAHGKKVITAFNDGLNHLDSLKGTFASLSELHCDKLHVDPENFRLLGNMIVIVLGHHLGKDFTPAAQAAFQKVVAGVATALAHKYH
UniProt Q04447: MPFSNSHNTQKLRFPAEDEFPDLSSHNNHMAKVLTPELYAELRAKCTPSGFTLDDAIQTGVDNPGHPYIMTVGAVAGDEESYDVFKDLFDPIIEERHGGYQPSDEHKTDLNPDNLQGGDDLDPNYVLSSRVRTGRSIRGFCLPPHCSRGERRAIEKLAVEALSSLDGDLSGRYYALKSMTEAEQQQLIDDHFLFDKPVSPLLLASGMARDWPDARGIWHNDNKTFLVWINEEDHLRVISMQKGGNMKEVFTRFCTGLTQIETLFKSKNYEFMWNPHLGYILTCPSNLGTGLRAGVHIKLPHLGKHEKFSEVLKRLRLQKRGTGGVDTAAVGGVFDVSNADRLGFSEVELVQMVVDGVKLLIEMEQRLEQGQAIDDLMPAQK
UniProt O88685: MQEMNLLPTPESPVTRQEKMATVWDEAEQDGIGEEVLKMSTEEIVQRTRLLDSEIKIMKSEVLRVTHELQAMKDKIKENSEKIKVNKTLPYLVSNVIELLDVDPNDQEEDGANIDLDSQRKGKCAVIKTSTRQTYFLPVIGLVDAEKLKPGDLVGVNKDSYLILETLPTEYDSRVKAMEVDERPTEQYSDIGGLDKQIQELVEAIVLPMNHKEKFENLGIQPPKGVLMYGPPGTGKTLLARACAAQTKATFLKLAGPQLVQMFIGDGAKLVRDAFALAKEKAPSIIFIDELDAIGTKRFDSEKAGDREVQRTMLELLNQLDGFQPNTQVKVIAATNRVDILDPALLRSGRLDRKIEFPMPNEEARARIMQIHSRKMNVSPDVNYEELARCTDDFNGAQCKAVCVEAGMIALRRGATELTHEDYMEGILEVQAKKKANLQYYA
UniProt P68372: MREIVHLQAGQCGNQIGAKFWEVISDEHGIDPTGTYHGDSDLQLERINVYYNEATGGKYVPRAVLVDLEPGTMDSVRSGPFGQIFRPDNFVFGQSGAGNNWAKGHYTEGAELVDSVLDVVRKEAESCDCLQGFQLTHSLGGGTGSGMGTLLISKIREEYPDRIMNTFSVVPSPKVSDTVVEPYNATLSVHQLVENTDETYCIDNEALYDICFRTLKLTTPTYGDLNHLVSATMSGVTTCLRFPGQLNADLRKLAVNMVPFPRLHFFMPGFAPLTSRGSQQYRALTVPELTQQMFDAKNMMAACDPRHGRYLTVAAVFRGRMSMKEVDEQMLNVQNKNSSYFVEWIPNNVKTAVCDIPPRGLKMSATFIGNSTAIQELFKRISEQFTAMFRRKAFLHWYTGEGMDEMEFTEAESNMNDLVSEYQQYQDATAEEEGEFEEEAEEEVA
UniProt Q8VDM6: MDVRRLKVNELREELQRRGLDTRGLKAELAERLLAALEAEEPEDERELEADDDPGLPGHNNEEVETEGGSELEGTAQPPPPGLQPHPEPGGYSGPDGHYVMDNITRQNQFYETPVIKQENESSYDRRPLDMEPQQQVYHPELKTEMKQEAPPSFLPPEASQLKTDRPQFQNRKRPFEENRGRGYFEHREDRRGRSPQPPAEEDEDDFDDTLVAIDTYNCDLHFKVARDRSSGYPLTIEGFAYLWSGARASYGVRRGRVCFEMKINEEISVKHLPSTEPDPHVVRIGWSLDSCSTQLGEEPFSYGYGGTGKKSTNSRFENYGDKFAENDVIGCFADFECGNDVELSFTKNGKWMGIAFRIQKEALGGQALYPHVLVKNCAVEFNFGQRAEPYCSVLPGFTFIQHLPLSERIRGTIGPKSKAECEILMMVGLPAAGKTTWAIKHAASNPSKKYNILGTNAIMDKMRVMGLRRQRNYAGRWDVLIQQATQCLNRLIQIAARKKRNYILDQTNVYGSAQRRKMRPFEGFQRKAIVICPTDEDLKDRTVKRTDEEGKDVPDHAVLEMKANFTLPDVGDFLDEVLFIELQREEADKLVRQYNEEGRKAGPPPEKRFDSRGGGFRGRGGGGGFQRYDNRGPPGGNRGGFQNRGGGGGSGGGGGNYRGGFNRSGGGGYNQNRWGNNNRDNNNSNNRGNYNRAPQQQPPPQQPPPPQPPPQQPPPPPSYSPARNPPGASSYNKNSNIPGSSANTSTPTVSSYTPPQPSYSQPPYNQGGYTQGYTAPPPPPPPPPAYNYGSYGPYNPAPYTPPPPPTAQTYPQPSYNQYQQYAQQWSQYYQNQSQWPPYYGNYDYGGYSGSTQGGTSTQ
UniProt P63101: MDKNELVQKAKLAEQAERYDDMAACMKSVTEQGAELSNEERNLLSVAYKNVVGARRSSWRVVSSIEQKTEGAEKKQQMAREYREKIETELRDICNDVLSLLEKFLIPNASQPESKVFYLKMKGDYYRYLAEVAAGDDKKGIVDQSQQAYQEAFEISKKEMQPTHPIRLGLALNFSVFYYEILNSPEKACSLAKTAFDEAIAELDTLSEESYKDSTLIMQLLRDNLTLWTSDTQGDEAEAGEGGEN
UniProt Q922F4: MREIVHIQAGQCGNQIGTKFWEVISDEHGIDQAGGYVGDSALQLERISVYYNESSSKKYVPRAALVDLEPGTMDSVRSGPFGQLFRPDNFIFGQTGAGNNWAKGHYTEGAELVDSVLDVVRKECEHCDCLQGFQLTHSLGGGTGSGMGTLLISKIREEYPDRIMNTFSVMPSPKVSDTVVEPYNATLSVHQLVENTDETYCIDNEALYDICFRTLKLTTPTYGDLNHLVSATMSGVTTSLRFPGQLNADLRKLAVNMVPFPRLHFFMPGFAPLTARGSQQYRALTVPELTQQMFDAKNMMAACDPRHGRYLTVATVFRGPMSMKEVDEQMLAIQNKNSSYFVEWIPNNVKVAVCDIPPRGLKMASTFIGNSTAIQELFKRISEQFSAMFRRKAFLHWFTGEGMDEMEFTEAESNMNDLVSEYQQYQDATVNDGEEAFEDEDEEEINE
UniProt Q8JZP2: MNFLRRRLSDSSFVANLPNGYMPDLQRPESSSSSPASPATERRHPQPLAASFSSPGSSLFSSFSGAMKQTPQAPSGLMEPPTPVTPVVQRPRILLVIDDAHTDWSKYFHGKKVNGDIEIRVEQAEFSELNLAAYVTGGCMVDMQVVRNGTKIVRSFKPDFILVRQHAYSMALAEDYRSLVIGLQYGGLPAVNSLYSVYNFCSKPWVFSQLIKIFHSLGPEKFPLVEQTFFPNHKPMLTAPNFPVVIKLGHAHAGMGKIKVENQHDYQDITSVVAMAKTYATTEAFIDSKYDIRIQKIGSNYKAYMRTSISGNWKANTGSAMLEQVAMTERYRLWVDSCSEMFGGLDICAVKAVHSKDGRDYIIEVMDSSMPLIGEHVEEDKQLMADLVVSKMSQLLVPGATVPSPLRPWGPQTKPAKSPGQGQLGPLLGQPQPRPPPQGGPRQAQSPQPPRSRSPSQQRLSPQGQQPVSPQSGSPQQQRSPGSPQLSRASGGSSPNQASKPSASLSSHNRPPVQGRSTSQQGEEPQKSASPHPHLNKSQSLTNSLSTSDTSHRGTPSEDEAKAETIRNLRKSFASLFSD
UniProt P99024: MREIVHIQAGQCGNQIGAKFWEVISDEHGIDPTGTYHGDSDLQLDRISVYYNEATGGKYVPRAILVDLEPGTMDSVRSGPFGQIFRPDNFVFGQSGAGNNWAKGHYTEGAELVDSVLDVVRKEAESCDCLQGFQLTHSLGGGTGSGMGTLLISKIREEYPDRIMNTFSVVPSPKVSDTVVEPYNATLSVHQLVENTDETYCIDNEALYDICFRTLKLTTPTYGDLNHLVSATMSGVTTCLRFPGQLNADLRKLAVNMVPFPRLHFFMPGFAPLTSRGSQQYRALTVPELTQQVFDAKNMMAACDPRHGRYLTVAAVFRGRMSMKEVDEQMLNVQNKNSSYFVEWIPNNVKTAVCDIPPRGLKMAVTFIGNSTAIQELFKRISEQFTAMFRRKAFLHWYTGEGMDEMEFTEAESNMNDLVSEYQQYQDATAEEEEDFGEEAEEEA
UniProt Q9D6F9: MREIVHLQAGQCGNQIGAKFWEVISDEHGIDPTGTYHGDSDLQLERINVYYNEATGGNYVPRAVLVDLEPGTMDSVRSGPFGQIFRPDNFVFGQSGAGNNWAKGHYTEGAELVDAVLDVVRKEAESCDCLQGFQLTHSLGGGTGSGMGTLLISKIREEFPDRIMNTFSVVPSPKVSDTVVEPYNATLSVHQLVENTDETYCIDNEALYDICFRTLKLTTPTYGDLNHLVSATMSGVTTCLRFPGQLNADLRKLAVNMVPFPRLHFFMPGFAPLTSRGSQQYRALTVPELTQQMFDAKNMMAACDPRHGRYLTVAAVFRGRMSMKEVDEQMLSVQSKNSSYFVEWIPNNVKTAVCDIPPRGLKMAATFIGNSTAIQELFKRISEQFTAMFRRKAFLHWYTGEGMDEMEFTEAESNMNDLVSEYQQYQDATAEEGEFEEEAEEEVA
UniProt Q64332: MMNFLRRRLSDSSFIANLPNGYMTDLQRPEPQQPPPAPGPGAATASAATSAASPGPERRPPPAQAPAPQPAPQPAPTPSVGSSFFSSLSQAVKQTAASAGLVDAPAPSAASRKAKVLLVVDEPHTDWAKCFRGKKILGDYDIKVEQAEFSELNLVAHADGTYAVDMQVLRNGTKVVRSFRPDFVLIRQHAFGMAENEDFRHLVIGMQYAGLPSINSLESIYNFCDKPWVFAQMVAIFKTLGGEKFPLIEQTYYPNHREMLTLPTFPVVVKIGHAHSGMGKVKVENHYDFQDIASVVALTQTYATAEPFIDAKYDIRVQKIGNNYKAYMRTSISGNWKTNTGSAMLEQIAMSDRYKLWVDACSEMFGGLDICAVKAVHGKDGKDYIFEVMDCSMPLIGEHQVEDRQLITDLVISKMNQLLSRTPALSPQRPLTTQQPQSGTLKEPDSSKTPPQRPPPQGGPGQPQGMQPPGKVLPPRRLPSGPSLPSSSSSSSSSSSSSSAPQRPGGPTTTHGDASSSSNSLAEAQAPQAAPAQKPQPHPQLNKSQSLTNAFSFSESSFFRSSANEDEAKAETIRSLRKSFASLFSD
UniProt P63085: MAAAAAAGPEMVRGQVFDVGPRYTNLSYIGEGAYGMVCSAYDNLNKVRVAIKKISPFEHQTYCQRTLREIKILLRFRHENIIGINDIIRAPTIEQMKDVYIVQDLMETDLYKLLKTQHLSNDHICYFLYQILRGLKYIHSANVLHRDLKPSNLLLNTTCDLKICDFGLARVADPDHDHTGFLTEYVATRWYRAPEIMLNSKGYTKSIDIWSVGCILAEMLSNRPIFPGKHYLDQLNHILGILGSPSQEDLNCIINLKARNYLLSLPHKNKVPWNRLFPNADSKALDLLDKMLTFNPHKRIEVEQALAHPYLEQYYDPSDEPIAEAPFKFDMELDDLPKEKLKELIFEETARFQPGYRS

Test [1] addresses glutathione S-transferase-tagged mouse progestin receptor PR-B (mouse) (UniProt Q00175). Kind of test: affinity purification with mass spectrometry; GST-PRA or GST-PRB bound to R5020, immobilised on glutathione Sepharose 4B, incubated 1 h at 4°C with pooled female mouse hypothalamic homogenate; washed with TG-NaCl (20 mM Tris-HCl, 10% glycerol, 100 mM NaCl, pH 8.0); eluted with 250 mM glutathione; nano-LC-MS/MS, label-free; a hit has a ratio R5020/no ligand ≥2 and p < 0.05; only the target purified.

Test [2] addresses glutathione S-transferase-tagged mouse progestin receptor PR-A (mouse). The test is described as above.

Results are given in words; binding and its absence hold for the method and conditions named. In cells and extracts the contact can be indirect. Here binding means that the protein was enriched with, or labelled near, the bait; the list need not be complete. A no says only that the protein was not detected with the bait.

For the molecule “Hemoglobin subunit β-1 (from UniProt P02088 1-147)”, the binding result in test [1] is recorded as “no binding”.

Consider “Phytanoyl-CoA hydroxylase-interacting protein-like (from UniProt Q8BGT8 1-375)”, for which the binding result in test [1] is “no binding”.

For “Creatine kinase B-type (from UniProt Q04447 1-381) (enzyme)”, the binding result in test [1] was “no binding”.

Take “26S protease regulatory subunit 6A (from UniProt O88685 1-442)”: the binding entry in test [1] was “binds”.

Consider “Tubulin β-4B chain (from UniProt P68372 1-445)”, for which the binding result in test [1] is given as “no binding”.

In the case of Synapsin-I (from UniProt O88935 1-706), the binding entry in test [1] is given as “binds”.

For “Heterogeneous nuclear ribonucleoprotein U-like protein 1 (from UniProt Q8VDM6 1-859)”, in test [1], the binding entry is listed as “binds”.

For “14-3-3 protein ζ/δ (from UniProt P63101 1-245)”, the binding result in test [1] is listed as “binds”.

Turning to “Tubulin β-6 chain (from UniProt Q922F4 1-447)”, the binding entry in test [1] is “binds”.

Turning to “Synapsin-III (from UniProt Q8JZP2 1-579)”, the binding result in test [1] is recorded as “binds”.

“Tubulin β-5 chain (from UniProt P99024 1-444)”: the binding entry in test [1] is “binds”.

As to “Tubulin β-4A chain (from UniProt Q9D6F9 1-444)”, the binding entry in test [1] is “no binding”.

As for Synapsin-II (from UniProt Q64332 1-586), the binding result in test [1] was “binds”.

“β-Actin-like protein 2 (from UniProt Q8BFZ3 1-376)”: the binding entry in test [1] is given as “binds”.

On to “Mitogen-activated protein kinase 1 (from UniProt P63085 1-358) (enzyme)”, for which the binding result in test [1] is recorded as “binds”.

B1: Synaptogyrin-III (protein, UniProt Q8R191 1-229)
chain: MEGASFGAGRAGAAFDPVSFARRPQTLLRVVSWVFSIAVFGPIVNEGYVNSDSGPELRCVFNGNAGACRFGVVLGLGAFIACVAFLLLDVRFQQISSVRDRRRAVLLDLGFSGVWSFLWFVGFCFLTNQWQRTTPGPGTAQAGDAARAAIAFSFFSILSWVALTVKALQRFRLGTDMSLFATDQLGTGAAQAYPGYPVGSGVEGTETYQSPPFTETLDTSSKGYQVPAY
Regarding B1, the binding result in test [2] is listed as “binds”; in test [1], “no binding”.

B2: Rab GDP dissociation inhibitor β (protein, UniProt Q61598 1-445)
chain: MNEEYDVIVLGTGLTECILSGIMSVNGKKVLHMDQNPYYGGESASITPLEDLYKRFKLPGQPPASMGRGRDWNVDLIPKFLMANGQLVKMLLFTEVTRYMDFKVIEGSFVYKGGKIYKVPSTEAEALASSLMGLFEKRRFRKFLVYVANFDEKDPRTFEGVDPKKTSMRDVYKKFDLGQDVIDFTGHSLALYRTDDYLDQPCCETINRIKLYSESLARYGKSPYLYPLYGLGELPQGFARLSAIYGGTYMLNKPIEEIIVQNGKVVGVKSEGEIARCKQLICDPSYVKDRVEKVGQVIRVICILSHPIKNTNDANSCQIIIPQNQVNRKSDIYVCMISFAHNVAAQGKYIAIVSTTVETKEPEKEIRPALELLEPIEQKFVSISDLFVPKDLGTDSQIFISRAYDATTHFETTCDDIKDIYKRMTGSEFDFEEMKRKKNDIYGED
As to B2, the binding entry in test [1] is “binds”.

B3: Septin-5 (protein, UniProt Q9Z2Q6 1-369)
chain: MSTGLRYKSKLATPEDKQDIDKQYVGFATLPNQVHRKSVKKGFDFTLMVAGESGLGKSTLVHSLFLTDLYKDRKLLSAEERINQTVEILKHTVDIEEKGVKLKLTIVDTPGFGDAVNNSECWKPITDYVDQQFEQYFRDESGLNRKNIQDNRVHCCLYFISPFGHGLRPVDVGFMKALHEKVNIVPLIAKADCLVPSEIRKLKDRIREEIDKFGIHVYQFPECDSDEDEDFKQQDRELKESAPFAVIGSNTVVEAKGQRVRGRLYPWGIVEVENQAHCDFVKLRNMLIRTHMHDLKDVTCDVHYENYRAHCIQQMTSKLTQDSRMESPIPILPLPTPDAETEKLIRMKDEELRRMQEMLQKMKQQMQDQ
Take B3: the binding entry in test [2] was “no binding”; in test [1], “binds”.

B4: Heterogeneous nuclear ribonucleoprotein D-like (protein, UniProt Q9Z130 1-301)
chain: MEDMNEYSNIEEFAEGSKINASKNQQDDGKMFIGGLSWDTSKKDLTEYLSRFGEVVDCTIKTDPVTGRSRGFGFVLFKDAASVDKVLELKEHKLDGKLIDPKRAKALKGKEPPKKVFVGGLSPDTSEEQIKEYFGAFGEIENIELPMDTKTNERRGFCFITYTDEEPVKKLLESRYHQIGSGKCEIKVAQPKEVYRQQQQQQKGGRGAAAGGRGGARGRGRGQGQNWNQGFNNYYDQGYGNYNSAYGGDQNYSGYGGYDYTGYNYGNYGYGQGYADYSGQQSTYGKASRGGGNHQNNYQPY
Take B4: the results for the binding result in test [2] and in test [1] were “no binding” and “binds”, respectively.

B5: Desmoglein-4 (protein, UniProt Q7TMD7 50-1041)
chain: EWIKFAAACREGEDNSKRNPIARIRSDCEVSQRITYRISGAGIDRPPYGVFTINPRTGEINITSVVDREITPLFLIHCRALNSRGEDLERPLELRVKVMDVNDNPPVFTQNVYTANIEENSDANALVVKLSATDADEDNHLNSKIAYKIISQEPAGAPMFMVNRYTGEVRTMSNFLDREQHSMYNLLVRGSDRDGATDGLSSECDCRIKILDVNDNFPILEKTSYSASIEENCLSSELIRLQAIDLDEEGTDNWLAQYSILSGNDGNWFEIQTDPKTNEGILKVVKMLDYEQEPNIYLSIGVRNQAEFHHSVASQFQMHSTPVRIQVVNVREGPTFSPSSMTFSLRGGMRGASLMNYVLGTYTAIDMDTGNPATNVRYVIGHDAGSWLKVDSRTGEIQFSREFDMKSKYITDGIYAAQILAIDDGSGRTATGTICIEIPDANDYCPVIYAESRSVCTHASSVRIYVNDHSFGSPFTFCVVDESPDIANIWDIRSINGTSAILMTEQTLSPGPYQIPILVKDSHNRACELPQTVLLDACFCDDHHVCLHSSTTGIYTGDITWVTDDMYGTVTDDGVRQSNVGLGPAGIGMIILGLLLLLLSPLLLLMCCCKRRQPEGLGTRFAPVPEGGEGVMQPWRIEGAHPEDRDVSNICVPMTASNTQDRIDSSEIYTNTYAGGGTVEGGVSGVELNTGVGTATGMVAAGATGTLRKRSSTIGTLREYQDTGMNMAFLDSYFSEKAYAYADEDEGRPANDCLLIYDHEGAGSPVGSIGCCSWIVDDLDESYIETLDPKFRTLAEICLDTEIEPFPSHQACIPISTDLPLLGPNYFVNESSGMTLSEAEFQAEMAAASEPMIHGDIIVTETYTTSDPCVQPTTIVFDSQIPPNVVVTETVMAPVYDVQGNICVPAEIANTHNVYYAERVVASPGIPDMGNSNISDACIGPVMSGGILVGPEIQVTQMMSPDIHISQTTGSTSPMTSQHRVTRYSNMHYSRQ
As for B5, the binding result in test [2] is listed as “binds”; in test [1] it was “no binding”.
